In ChEMBL document CHEMBL4303122, “Identification of potential treatments for COVID-19 through artificial intelligence-enabled phenomic analysis of human cells infected with SARS-CoV-2” (2020):
The full ranking holds about 1,600 compounds; the median of “Hit score” is about 0.13, and the highest 2% start at about 0.46. The list shows a part of the results.

test system: SARS-CoV-2; test: Antiviral activity against SARS-CoV-2 (USA-WA1/2020 strain) measured by imaging in HRCE cells at MOI 0.4 after 96 hrs (reported as hit score from 0-1 for on-disease vs off-disease activity: scores >0.6 considered hits); format: functional, Homo sapiens

Row | Compound | Hit score
1 | CC(Cc1ccc(O)c(O)c1)C(C)Cc1ccc(O)c(O)c1 (configuration not stated) [NORDIHYDROGUAIARETIC ACID] | 0.1128
2 | C[C@@H](C(=O)O)c1ccc(-c2ccccc2)c(F)c1 [TARENFLURBIL] | 0.1438
3 | C=C[C@@H]1C[C@]1(NC(=O)[C@@H]1C[C@@H]2CN1C(=O)[C@H](C(C)(C)C)NC(=O)O[C@@H]1C[C@H]1CCCCCc1nc3ccc(OC)cc3nc1O2)C(=O)NS(=O)(=O)C1CC1 [GRAZOPREVIR ANHYDROUS] | 0.01454
4 | c1cnc(N2CCN(Cc3ccc4c(c3)OCO4)CC2)nc1 [PIRIBEDIL] | 0.08373
5 | COc1cc2c(cc1OC)CC(=O)N(CCCN(C)C[C@H]1Cc3cc(OC)c(OC)cc31)CC2 [IVABRADINE] | 0.05115
6 | CS(=O)(=O)c1ccc(-c2cn3ccccc3n2)cc1 [ZOLIMIDINE] | 0.1274
7 | CCCCCCCCCCCCOCCOCCOCCOCCOCCOCCOCCOCCOCCO | 0.154
8 | C=C1c2c(Cl)ccc(O)c2C(=O)C2=C(O)[C@]3(O)C(=O)C(C(N)=O)=C(O)[C@@H](N(C)C)[C@@H]3[C@@H](O)[C@H]12.O=C(O)c1cc(S(=O)(=O)O)ccc1O [MECLOCYCLINE SULFOSALICYLATE] | 0.1338
9 | C[C@]12C=CC(=O)C=C1CC[C@@H]1[C@@H]2[C@@H](O)C[C@@]2(C)[C@H]1CC[C@]2(O)C(=O)CO [PREDNISOLONE] | 0.03404
10 | Cc1ccc(NC(=O)c2ccc(CN3CCN(C)CC3)cc2)cc1Nc1nccc(-c2cccnc2)n1 [IMATINIB] | 0.06765
11 | CC(C)C(=O)Oc1ccc(CO)cc1[C@H](CCN(C(C)C)C(C)C)c1ccccc1 [FESOTERODINE] | 0.03098
12 | CCc1cc2c(cc1N1CCC(N3CCOCC3)CC1)C(C)(C)c1[nH]c3cc(C#N)ccc3c1C2=O [ALECTINIB] | 0.09966
13 | CCc1c2c(nc3ccc(O)cc13)-c1cc3c(c(=O)n1C2)COC(=O)[C@]3(O)CC [7-ETHYL-10-HYDROXYCAMPTOTHECIN] | 0.3015
14 | COc1ccc(-c2cc(=S)ss2)cc1 [ANETHOLTRITHION] | 0.1126
15 | C1COC(NC(C2CC2)C2CC2)=N1 [RILMENIDINE] | 0.1025
16 | C#CCN[C@@H]1CCc2ccccc21 [RASAGILINE] | 0.177
17 | CCOc1nc2cccc(C(=O)OCc3oc(=O)oc3C)c2n1Cc1ccc(-c2ccccc2-c2noc(=O)[nH]2)cc1 [AZILSARTAN MEDOXOMIL] | 0.1452
18 | O=C(O)c1cn(C2CC2)c2cc(N3CCNCC3)c(F)cc2c1=O [CIPROFLOXACIN] | 0.1255
19 | CCc1nc(N)nc(N)c1-c1ccc(Cl)cc1 [PYRIMETHAMINE] | 0.2473
20 | CC(C)NCC(O)COc1ccc(CCOCC2CC2)cc1 (configuration not stated) [BETAXOLOL] | 0.2742
21 | C1CCC(C(CC2CCCCN2)C2CCCCC2)CC1 (configuration not stated) [PERHEXILINE] | 0.1976
22 | COc1cc(C(=O)NCc2ccc(OCCN(C)C)cc2)cc(OC)c1OC [TRIMETHOBENZAMIDE] | 0.1981
23 | CCCN1CCCC[C@H]1C(=O)Nc1c(C)cccc1C [ROPIVACAINE] | 0.03443

At a glance, some entries already given.
Row | Compound | Hit score
1 | CC(Cc1ccc(O)c(O)c1)C(C)Cc1ccc(O)c(O)c1 (configuration not stated) [NORDIHYDROGUAIARETIC ACID] | 0.1128
2 | C[C@@H](C(=O)O)c1ccc(-c2ccccc2)c(F)c1 [TARENFLURBIL] | 0.1438

Going on with the list:

Row | Compound | Hit score
24 | Cc1ccc2c(c1)c1c3n2CCNC3CCC1 (configuration not stated) [PIRLINDOLE] | 0.1098
25 | CC1=NN(c2ccccc2)C(=O)C1 [EDARAVONE] | 0.13
26 | N#C/C(=C\c1cn(-c2ccccc2)c2ccccc12)C(=O)O | 0.06944
27 | Cn1cnc2c1c(=O)[nH]c(=O)n2C [THEOBROMINE] | 0.2208
28 | CCN(CC)CCNC(=O)c1cc(Cl)c(N)cc1OC [METOCLOPRAMIDE] | 0.1755
29 | Cc1sc(C)c(C(=O)NC2(c3ccc(C(=O)O)cc3)CC2)c1Cc1ccc(C(F)(F)F)cc1 | 0.1909
30 | OCc1cccnc1 [NICOTINYL ALCOHOL] | 0.2034
31 | CC1=CC(=O)C(C(C)C)=CC1=O [THYMOQUINONE] | 0.1059
32 | COc1ccccc1Oc1c(NS(=O)(=O)c2ccc(C(C)(C)C)cc2)nc(-c2ncccn2)nc1OCCO [BOSENTAN] | 0.2095
33 | COc1cc(C(=S)N2CCOCC2)cc(OC)c1OC [TRITIOZINE] | 0.1798
34 | CC(C)[N+](C)(CCOC(=O)C1c2ccccc2Oc2ccccc21)C(C)C [PROPANTHELINE] | 0.1356
35 | CN1CCC[C@@H]1Cc1c[nH]c2ccc(CCS(=O)(=O)c3ccccc3)cc12 | 0.1607
36 | CN(C)CCC=C1c2ccccc2COc2ccccc21 [DOXEPIN] | -0.01345
37 | CC(C)Nc1cccnc1N1CCN(C(=O)c2cc3cc(NS(C)(=O)=O)ccc3[nH]2)CC1 [DELAVIRDINE] | 0.1383
38 | N#Cc1ccc(C2CCCc3cncn32)cc1 (configuration not stated) [FADROZOLE] | -0.02831
39 | C#Cc1cccc(Nc2ncnc3cc(OCCOC)c(OCCOC)cc23)c1 [ERLOTINIB] | 0.1311
40 | CO/C1=C\C(C)=C\[C@@H](C)[C@@H](O)[C@@H](C)C/C(C)=C/C=C/[C@H](OC)[C@@H]([C@@H](C)[C@@H](O)[C@H](C)[C@@]2(O)C[C@@H](O)[C@H](C)[C@@H](C(C)C)O2)OC1=O [BAFILOMYCIN A1] | 0.2403
41 | C/C(=C(/CCO)SSCC1CCCO1)N(C=O)Cc1cnc(C)nc1N (configuration not stated) [FURSULTIAMINE] | 0.06698
42 | CC[C@@]1(O)C(=O)OCc2c1cc1n(c2=O)Cc2c-1nc1ccccc1c2CCNC(C)C [BELOTECAN] | 0.3416
43 | CC[C@H]1OC(=O)[C@H](C)[C@@H](O[C@H]2C[C@@](C)(OC)[C@@H](O)[C@H](C)O2)[C@H](C)[C@@H](O[C@@H]2O[C@H](C)C[C@H](N(C)C)[C@H]2O)[C@](C)(O)C[C@@H](C)/C(=N\OCOCCOC)[C@H](C)[C@@H](O)[C@]1(C)O [ROXITHROMYCIN] | 0.1457
44 | CCCCCCOC(=O)NC(=N)c1ccc(NCc2nc3cc(C(=O)N(CCC(=O)OCC)c4ccccn4)ccc3n2C)cc1 [DABIGATRAN ETEXILATE] | 0.242
45 | Cc1c(-c2ccccc2)oc2c(C(=O)OCCN3CCCCC3)cccc2c1=O [FLAVOXATE] | 0.1693
46 | C/C=C1\[C@H]2C=C(C)C[C@]1(N)c1ccc(=O)[nH]c1C2 [HUPERZINE A] | 0.2677

Row | Compound | Hit score
47 | NC(=O)CN1CC(O)CC1=O (configuration not stated) [OXIRACETAM] | 0.1694
48 | CCN(CC)CCOC(=O)c1ccc(N)cc1Cl [CHLOROPROCAINE] | 0.06273
49 | Cc1cc(C)c(CNC(=O)c2cc(-c3ccc(CN4CCOCC4)cc3)cc3c2cnn3C2CCCC2)c(=O)[nH]1 | 0.02871
50 | CN(C)C(=O)C(CCN1CCC(O)(c2ccc(Cl)cc2)CC1)(c1ccccc1)c1ccccc1 [LOPERAMIDE] | -0.01176
51 | Nc1nc2[nH]cnc2c(=S)[nH]1 [THIOGUANINE] | 0.2388
52 | Cc1cccc(C)c1NC(=O)CC12CCCN1CCC2 [PILSICAINIDE] | 0.07632
53 | Cc1ccccc1C(=O)Nc1ccc(C(=O)N2CCCC(O)c3cc(Cl)ccc32)c(C)c1 (configuration not stated) [TOLVAPTAN] | 0.1093
54 | N#C[C@@H]1C[C@@H]2C[C@@H]2N1C(=O)[C@@H](N)C12CC3CC(CC(O)(C3)C1)C2.O [SAXAGLIPTIN] | -0.0639
55 | CCOC(=O)CCC(=O)O[C@H]1[C@H](O[C@@H]2[C@@H](C)[C@H](O[C@H]3C[C@@](C)(OC)[C@@H](O)[C@H](C)O3)[C@@H](C)C(=O)O[C@H](CC)[C@@](C)(O)[C@H](O)[C@@H](C)C(=O)[C@H](C)C[C@@]2(C)O)O[C@H](C)C[C@@H]1N(C)C [ERYTHROMYCIN ETHYLSUCCINATE] | 0.2512
56 | Cc1cccc(C)c1NC(=O)C(C)N (configuration not stated) [TOCAINIDE] | -0.08565
57 | CC(C(=O)O)c1ccc2c(c1)[nH]c1ccc(Cl)cc12 (configuration not stated) [CARPROFEN] | 0.07462
58 | CCCCc1cc2ccccc2c(OCCN(C)C)n1 [DIMETHISOQUIN] | 0.1395
59 | CC(=O)O[C@H]1C[C@@]2(C)[C@@H](C[C@@H](O)[C@H]3[C@@]4(C)CC[C@@H](O)[C@@H](C)[C@@H]4CC[C@@]32C)/C1=C(\CCC=C(C)C)C(=O)O [FUSIDIC ACID] | 0.09513
60 | CC1OC(O[C@@H]2C=C3CC[C@@H]4[C@H](CC[C@]5(C)[C@@H](c6ccc(=O)oc6)CC[C@]45O)[C@@]3(C)CC2)C(O)C(O)C1O (some centres not stated) | -0.48
61 | NC(=O)c1cn(Cc2c(F)cccc2F)nn1 [RUFINAMIDE] | 0.1638
62 | OB1OCc2cc(F)ccc21 [TAVABOROLE] | 0.2238
63 | Cc1c(O)cccc1C(=O)N[C@@H](CSc1ccccc1)[C@H](O)CN1C[C@H]2CCCC[C@H]2C[C@H]1C(=O)NC(C)(C)C | 0.1621
64 | CO[C@@]12[C@H](COC(N)=O)C3=C(C(=O)C(C)=C(N)C3=O)N1C[C@@H]1N[C@@H]12 [MITOMYCIN] | 0.1793
65 | Cc1c(OCC(F)(F)F)ccnc1C[S@@+]([O-])c1nc2ccccc2[nH]1 [DEXLANSOPRAZOLE] | 0.1092
66 | N#Cc1cc(NC(=O)C(=O)O)c(Cl)c(NC(=O)C(=O)O)c1 [LODOXAMIDE] | 0.07153
67 | Nc1ncn([C@H]2C[C@H](O)[C@@H](CO)O2)c(=O)n1 [DECITABINE] | -0.05394
